The exact form of at least one protein or probe is not confirmed.
Key:
Thrombin = assay: binding assay; conditions: purified native protein, protein details: Sigma-Millipore, single-stranded DNA
PDGF-BB = PDGF-BB (UniProt P01127); assay: binding assay; conditions: CITED Green et al. 1996 (apparently); value stated for 41T aptamer, not measured here; purified recombinant protein; label: 5' fluorescein, 3' Black Hole Quencher 1; single-stranded DNA

With “AGTCCGTGGTAGGGCAGGTTGGGGTGAC [HD22 aptamer]” the Kd (Thrombin; CITED Tasset et al. 1997 (apparently), value stated for HD22 aptamer, not measured here) was 0.5 nM.
“TTTTTTAGTCCGTGGTAGGGCAGGTTGGGGTGACT [HD22 aptamer labelled (FIG. 4C)]”: binds (Thrombin; 5' DBCO-TEG via five-thymidine linker, thymine-linked Black Hole Quencher 1, fluorescence thermal melt in solution, Tm about 42 C unbound to about 52 C bound, 1x PBS, 1 mM MgCl2, 0.1 mg/ml BSA, label: 3' FAM, variant of HD22 aptamer).
With “TACTCAGGGCACTGCAAGCAATTGTGGTCCCAATGGGCTGAGTA [41T aptamer (solution, FIG. 4A)]” the Kd (PDGF-BB) was 0.13 nM.

— patent publication US20250314646
